{
  "source": "PubChem BioAssay AID1347426",
  "about": "(Functional Genomics Laboratory (NCATS/FGL), 2020)",
  "note": "Hit rate of the full screen: of about 31,000 sequences, about 1,400 (4.5%) were called active.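 The calls were made as follows: active = median seed-adjusted z-score above 1 or below -1; inactive = the rest.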 This is one part of the list.",
  "data": [
    {"test": "Novel Modifiers of Survival Motor Neuron (SMN) Protein: Gene Identification via Genome-wide siRNA Screen;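 also: luminescence tracks full-length SMN protein made from the SMN2 reporter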", "conditions": "HEK293T SMN2-luciferase reporter, siRNA knockdown, 72 h; actives lie on both sides", "procedure,_shortened": "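Genome-wide siRNA screen (10418 genes, 3 siRNAs each, 1 pmol per well) by reverse transfection in HEK293T cells stably carrying an SMN2-luciferase reporter; luminescence after 72 hours, normalized to negative-control siRNA, log10-transformed, MAD-scored.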", "values": [
      {"sequence": "GCCUACAAUUCACAAUAGATT against CD180", "median seed-adjusted z-score": "inactive: 0"},
      {"sequence": "CUGAUUCUCGCAAUAAAUATT against CLCN4", "median seed-adjusted z-score": "inactive: 0"},
      {"sequence": "CAAUCAAAUUUCUAACUUUTT against MEX3D", "median seed-adjusted z-score": "inactive: -0.337"},
      {"sequence": "ACCGCUACGUGAUUCUGGATT against DCAKD", "median seed-adjusted z-score": "inactive: 0.0872"},
      {"sequence": "GCCCAGAAUUCAAUCCGAATT against ABCB7", "median seed-adjusted z-score": "inactive: -0.0991"},
      {"sequence": "CAGUGCUCAUGGAACUCUUTT against HMGCS2", "median seed-adjusted z-score": "inactive: -0.465"},
      {"sequence": "UGUCAAGCCUGAAAACCUATT against MAPKAPK3", "median seed-adjusted z-score": "inactive: -0.506"},
      {"sequence": "GAGCUAACAUAUAUCAUCATT against STX5", "median seed-adjusted z-score": "inactive: 0.108"},
      {"sequence": "GGAAGAUCAUCACUAGUGATT against ACSS1", "median seed-adjusted z-score": "inactive: 0.243"},
      {"sequence": "CAGUGAACGAGCAAAUAAATT against ATRIP", "median seed-adjusted z-score": "inactive: 0.353"},
      {"sequence": "GCAGGAGAAAGACCGAGAATT against POLR3D", "median seed-adjusted z-score": "inactive: -0.434"},
      {"sequence": "GUUUCACCAUCGUUCGUGATT against PROKR2", "median seed-adjusted z-score": "inactive: 0.328"},
      {"sequence": "CCUCCUACCUGAAGUUUCATT against ST8SIA4", "median seed-adjusted z-score": "inactive: -0.309"},
      {"sequence": "GCAUGGACUUCGAUGAGUUTT against ULK1", "median seed-adjusted z-score": "inactive: -0.214"},
      {"sequence": "GCAUGACCCGAGUCAUUGATT against RPN1", "median seed-adjusted z-score": "inactive: -0.375"},
      {"sequence": "GUUUUGACGGAGCAACAAATT against POGK", "median seed-adjusted z-score": "inactive: 0.938"},
      {"sequence": "GCUAAUAUGCAGUCCCAUATT against MCART6", "median seed-adjusted z-score": "inactive: 0.714"},
      {"sequence": "CCACAUCGAAGGAACAGGATT against MYBL2", "median seed-adjusted z-score": "inactive: 0.592"},
      {"sequence": "AGAGAGCUCCGAACCUUCUTT against ICAM5", "median seed-adjusted z-score": "active: -1"},
      {"sequence": "CUGCUUAACCGAUUCAAUUTT against NSUN3", "median seed-adjusted z-score": "inactive: 0.302"},
      {"sequence": "GCAUGAGGGAGGACGUGUATT against THOP1", "median seed-adjusted z-score": "inactive: 0.643"},
      {"sequence": "GUCUUUAGCUGACCUGAAUTT against DMD", "median seed-adjusted z-score": "inactive: -0.626"},
      {"sequence": "UCAUAUCUGCUAAAGCGAATT against PIF1", "median seed-adjusted z-score": "inactive: -0.0455"},
      {"sequence": "GCAGCUCCAUUACUUCAAATT against MCFD2", "median seed-adjusted z-score": "inactive: -0.0111"},
      {"sequence": "CCCGAACACUGUUUCAGUUTT against ABTB2", "median seed-adjusted z-score": "inactive: 0.432"},
      {"sequence": "GCUCUAUCAAAGAAAGCAATT against PDHX", "median seed-adjusted z-score": "inactive: 0.21"},
      {"sequence": "GCAACUCUGUCUAGAACAATT against TSGA14", "median seed-adjusted z-score": "inactive: 0.433"},
      {"sequence": "CACUUAAGAGCUUCGAAAATT against FKBP5", "median seed-adjusted z-score": "inactive: -0.598"},
      {"sequence": "GCAUUGAAACGAAUGGGAATT against UBA5", "median seed-adjusted z-score": "inactive: -0.105"},
      {"sequence": "GCAGCAUGCUACAACCAAATT against RNF25", "median seed-adjusted z-score": "inactive: -0.0826"},
      {"sequence": "GGAAUUCCUUUAAUGACGATT against RYR3", "median seed-adjusted z-score": "inactive: 0"},
      {"sequence": "GCACGGCUGAAGACUCUAATT against GNRHR", "median seed-adjusted z-score": "inactive: 0.0978"},
      {"sequence": "CAACUUAGUUUGGAUGUAATT against CHST10", "median seed-adjusted z-score": "inactive: 0.115"},
      {"sequence": "GAAUUGUUGAAACCCAUUUTT against GNAI1", "median seed-adjusted z-score": "inactive: -0.233"},
      {"sequence": "GGAUUCAUUCUGUUACUUATT against GSTT2", "median seed-adjusted z-score": "inactive: 0.0298"},
      {"sequence": "CCUCAGAUGUGAUGUGGAATT against ACSM3", "median seed-adjusted z-score": "inactive: 0.281"},
      {"sequence": "GCAUUGUUAUGAGCCUUGATT against RDH8", "median seed-adjusted z-score": "inactive: -0.657"},
      {"sequence": "GCAUCAUCCAGAGACUGCATT against CCL19", "median seed-adjusted z-score": "inactive: 0.0364"},
      {"sequence": "CAUUGUCAAUAUAACGAUUTT against GPR98", "median seed-adjusted z-score": "inactive: -0.509"},
      {"sequence": "GGAAGUCUGUUUCACGAUATT against SND1", "median seed-adjusted z-score": "inactive: -0.0434"},
      {"sequence": "UGAAACUGUUAGUAGCAAATT against USP46", "median seed-adjusted z-score": "inactive: -0.964"},
      {"sequence": "GGAUCCGAGAGUCACCCAATT against LLGL1", "median seed-adjusted z-score": "active: -1.13"},
      {"sequence": "GGAUAUUUCCCAGAGGAAATT against ZNF69", "median seed-adjusted z-score": "inactive: 0"},
      {"sequence": "CUAUGGUAGCGACACUGCATT against LILRB1", "median seed-adjusted z-score": "inactive: 0.539"},
      {"sequence": "CGAUUUUGUCACAACAACATT against EIF5", "median seed-adjusted z-score": "inactive: 0.362"},
      {"sequence": "CUCCUGAGAUAAUAAUGAATT against RFC3", "median seed-adjusted z-score": "inactive: 0.733"},
      {"sequence": "GCAGAAGGCUGCUUACUAUTT against HOXD3", "median seed-adjusted z-score": "inactive: 0.233"},
      {"sequence": "AGAAGAGUUUUCUAGCGAATT against POU2F2", "median seed-adjusted z-score": "inactive: 0.163"},
      {"sequence": "CAGCUCAAGUCUUCCCUGATT against LTA", "median seed-adjusted z-score": "inactive: 0.273"},
      {"sequence": "GGAGGAGAAUCCAUCUAUUTT against GJC1", "median seed-adjusted z-score": "inactive: -0.0291"},
      {"sequence": "GAAUGAUUGAGUUUCGUGATT against PURG", "median seed-adjusted z-score": "inactive: 0.448"},
      {"sequence": "UGACGUAAUUCACUCGUUUTT against RNASET2", "median seed-adjusted z-score": "inactive: -0.126"},
      {"sequence": "CAAUGAUCCCGGGCAUUUATT against RPP21", "median seed-adjusted z-score": "active: -1.09"},
      {"sequence": "GAGGAAUUCUUCGACCUCATT against GPSM1", "median seed-adjusted z-score": "inactive: -0.275"},
      {"sequence": "GAAGAAACCUUGAACGACATT against DHRSX", "median seed-adjusted z-score": "inactive: -0.686"},
      {"sequence": "GGGCUACCUGUGCUACUCATT against KRTAP23-1", "median seed-adjusted z-score": "inactive: 0.647"},
      {"sequence": "GACGAAUUCUUCACCAUGATT against DUOX2", "median seed-adjusted z-score": "inactive: 0.525"},
      {"sequence": "GCAAGGUAGUCGAUAGUGATT against CDH13", "median seed-adjusted z-score": "inactive: 0"},
      {"sequence": "CUGUGAGAGUGAUCGGGAATT against HUWE1", "median seed-adjusted z-score": "inactive: 0.734"},
      {"sequence": "AAAUGCAAGAGUUUGGUUATT against RBP7", "median seed-adjusted z-score": "inactive: 0.0709"},
      {"sequence": "CCAAGAUGCUCAGUCAUCATT against MAP4K1", "median seed-adjusted z-score": "inactive: 0"},
      {"sequence": "GGAGGAUUCUAACAUGGAUTT against RASAL1", "median seed-adjusted z-score": "inactive: -0.089"},
      {"sequence": "GGAAGUCCACCUUUCUCAATT against PNKP", "median seed-adjusted z-score": "inactive: -0.0563"},
      {"sequence": "AAGACGUGUUUAUCAUUAATT against LMX1A", "median seed-adjusted z-score": "inactive: 0.15"},
      {"sequence": "GAGUCUAAACUAUCCUGAATT against OVCH2", "median seed-adjusted z-score": "inactive: 0.439"},
      {"sequence": "CGAGGGCUAUGGAAGGAAATT against MAP3K3", "median seed-adjusted z-score": "inactive: -0.182"},
      {"sequence": "AGUCCAACAUCUGCCUUUATT against ITGAX", "median seed-adjusted z-score": "inactive: -0.0677"},
      {"sequence": "GAGUGAAACUGUACGGAAUTT against PCDHGA9", "median seed-adjusted z-score": "inactive: -0.125"},
      {"sequence": "GGGACUAGCUCUUCGCAUATT against PTGER3", "median seed-adjusted z-score": "inactive: -0.321"}
    ]}
  ]
}
